Measurements as given in article PMC10743813.

Amino acid sequences for entries named in this document (tags omitted). A change or cut given only in a name is not applied to a line headed by its entry.
UniProt Q23K54: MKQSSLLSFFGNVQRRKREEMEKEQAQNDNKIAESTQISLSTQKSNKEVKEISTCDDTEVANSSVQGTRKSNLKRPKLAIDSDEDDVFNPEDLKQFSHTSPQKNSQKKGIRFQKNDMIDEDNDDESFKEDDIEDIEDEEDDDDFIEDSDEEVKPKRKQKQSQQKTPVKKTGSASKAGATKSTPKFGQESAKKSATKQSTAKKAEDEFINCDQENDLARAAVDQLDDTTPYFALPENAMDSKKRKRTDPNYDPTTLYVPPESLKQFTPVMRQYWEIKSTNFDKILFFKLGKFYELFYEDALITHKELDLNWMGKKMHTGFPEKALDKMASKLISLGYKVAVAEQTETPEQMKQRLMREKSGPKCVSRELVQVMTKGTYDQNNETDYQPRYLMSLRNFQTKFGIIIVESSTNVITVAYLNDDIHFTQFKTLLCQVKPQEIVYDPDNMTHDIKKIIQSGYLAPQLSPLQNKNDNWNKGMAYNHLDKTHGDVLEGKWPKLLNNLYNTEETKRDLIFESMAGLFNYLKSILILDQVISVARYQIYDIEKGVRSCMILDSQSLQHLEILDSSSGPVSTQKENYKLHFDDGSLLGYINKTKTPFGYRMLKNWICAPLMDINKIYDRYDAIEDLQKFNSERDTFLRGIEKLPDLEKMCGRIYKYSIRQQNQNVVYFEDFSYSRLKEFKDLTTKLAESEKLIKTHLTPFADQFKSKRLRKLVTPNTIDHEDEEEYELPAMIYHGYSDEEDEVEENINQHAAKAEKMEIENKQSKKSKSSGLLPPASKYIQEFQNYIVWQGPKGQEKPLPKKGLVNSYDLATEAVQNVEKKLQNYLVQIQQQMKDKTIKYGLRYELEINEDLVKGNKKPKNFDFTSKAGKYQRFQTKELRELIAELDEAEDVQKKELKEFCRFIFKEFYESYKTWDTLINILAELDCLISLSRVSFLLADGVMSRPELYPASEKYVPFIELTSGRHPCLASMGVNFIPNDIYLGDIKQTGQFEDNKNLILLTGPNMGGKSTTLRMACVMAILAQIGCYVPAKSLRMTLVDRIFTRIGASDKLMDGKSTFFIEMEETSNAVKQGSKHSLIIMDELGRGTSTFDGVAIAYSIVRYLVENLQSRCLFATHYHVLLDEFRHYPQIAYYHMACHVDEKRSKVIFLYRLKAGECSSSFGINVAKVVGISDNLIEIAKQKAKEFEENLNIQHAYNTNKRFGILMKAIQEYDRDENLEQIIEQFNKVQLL
UniProt Q22A23: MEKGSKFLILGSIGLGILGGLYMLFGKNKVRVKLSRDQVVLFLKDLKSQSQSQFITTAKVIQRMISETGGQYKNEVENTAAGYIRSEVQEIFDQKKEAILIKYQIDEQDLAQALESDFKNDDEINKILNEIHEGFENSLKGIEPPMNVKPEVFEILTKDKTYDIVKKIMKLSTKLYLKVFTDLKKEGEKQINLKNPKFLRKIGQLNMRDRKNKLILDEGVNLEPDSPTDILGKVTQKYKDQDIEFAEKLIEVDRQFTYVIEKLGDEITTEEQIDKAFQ
UniProt I7ME84: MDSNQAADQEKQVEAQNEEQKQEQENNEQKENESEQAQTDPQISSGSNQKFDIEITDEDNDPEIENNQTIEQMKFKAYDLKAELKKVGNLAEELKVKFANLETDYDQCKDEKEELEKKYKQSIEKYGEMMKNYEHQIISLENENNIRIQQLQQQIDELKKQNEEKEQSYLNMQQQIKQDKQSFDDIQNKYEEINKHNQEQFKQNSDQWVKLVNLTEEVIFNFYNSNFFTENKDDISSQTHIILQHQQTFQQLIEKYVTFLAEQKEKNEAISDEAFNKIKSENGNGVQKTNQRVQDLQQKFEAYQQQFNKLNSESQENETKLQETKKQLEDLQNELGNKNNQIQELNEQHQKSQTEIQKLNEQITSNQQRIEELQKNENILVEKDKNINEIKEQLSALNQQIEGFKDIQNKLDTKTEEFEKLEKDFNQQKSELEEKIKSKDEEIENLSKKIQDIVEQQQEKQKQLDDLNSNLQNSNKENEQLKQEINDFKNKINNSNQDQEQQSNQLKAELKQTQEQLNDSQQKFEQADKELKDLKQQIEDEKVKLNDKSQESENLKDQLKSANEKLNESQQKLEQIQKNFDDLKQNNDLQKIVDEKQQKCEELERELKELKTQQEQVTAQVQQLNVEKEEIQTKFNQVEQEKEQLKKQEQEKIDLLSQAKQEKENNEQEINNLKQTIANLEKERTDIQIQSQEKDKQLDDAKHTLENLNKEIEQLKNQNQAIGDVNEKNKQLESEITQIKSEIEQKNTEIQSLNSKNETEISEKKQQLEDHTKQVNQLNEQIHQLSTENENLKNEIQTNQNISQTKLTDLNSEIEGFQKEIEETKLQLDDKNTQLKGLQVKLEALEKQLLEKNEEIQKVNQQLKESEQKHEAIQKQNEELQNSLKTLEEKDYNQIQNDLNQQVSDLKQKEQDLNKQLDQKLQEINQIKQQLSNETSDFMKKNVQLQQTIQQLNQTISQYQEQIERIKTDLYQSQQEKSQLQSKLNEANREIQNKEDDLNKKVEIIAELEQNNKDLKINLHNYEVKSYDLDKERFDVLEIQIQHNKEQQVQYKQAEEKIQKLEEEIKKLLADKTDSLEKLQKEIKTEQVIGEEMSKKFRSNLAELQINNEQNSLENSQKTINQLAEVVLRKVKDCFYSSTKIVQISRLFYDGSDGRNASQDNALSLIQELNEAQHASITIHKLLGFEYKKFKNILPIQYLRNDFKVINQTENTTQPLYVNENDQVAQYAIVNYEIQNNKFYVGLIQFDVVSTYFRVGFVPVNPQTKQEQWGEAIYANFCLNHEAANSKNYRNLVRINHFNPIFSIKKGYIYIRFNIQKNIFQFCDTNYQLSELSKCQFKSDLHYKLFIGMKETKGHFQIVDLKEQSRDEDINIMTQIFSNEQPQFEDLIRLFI
UniProt Q22BK8: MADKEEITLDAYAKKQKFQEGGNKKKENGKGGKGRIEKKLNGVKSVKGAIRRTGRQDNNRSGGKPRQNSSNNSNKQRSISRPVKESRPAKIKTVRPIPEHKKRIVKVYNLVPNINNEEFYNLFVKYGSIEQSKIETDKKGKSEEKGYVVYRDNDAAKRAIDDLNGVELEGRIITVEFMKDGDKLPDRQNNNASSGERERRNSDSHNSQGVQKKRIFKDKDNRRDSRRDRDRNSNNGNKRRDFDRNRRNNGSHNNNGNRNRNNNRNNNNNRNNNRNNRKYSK
UniProt Q23DG3: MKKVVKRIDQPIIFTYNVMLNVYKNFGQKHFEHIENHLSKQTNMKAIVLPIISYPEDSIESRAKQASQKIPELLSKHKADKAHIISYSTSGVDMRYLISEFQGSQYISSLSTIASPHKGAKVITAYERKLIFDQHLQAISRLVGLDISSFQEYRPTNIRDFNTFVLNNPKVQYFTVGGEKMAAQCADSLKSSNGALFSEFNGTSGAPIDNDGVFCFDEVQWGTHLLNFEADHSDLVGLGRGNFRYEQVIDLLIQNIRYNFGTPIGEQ
UniProt Q23FR3: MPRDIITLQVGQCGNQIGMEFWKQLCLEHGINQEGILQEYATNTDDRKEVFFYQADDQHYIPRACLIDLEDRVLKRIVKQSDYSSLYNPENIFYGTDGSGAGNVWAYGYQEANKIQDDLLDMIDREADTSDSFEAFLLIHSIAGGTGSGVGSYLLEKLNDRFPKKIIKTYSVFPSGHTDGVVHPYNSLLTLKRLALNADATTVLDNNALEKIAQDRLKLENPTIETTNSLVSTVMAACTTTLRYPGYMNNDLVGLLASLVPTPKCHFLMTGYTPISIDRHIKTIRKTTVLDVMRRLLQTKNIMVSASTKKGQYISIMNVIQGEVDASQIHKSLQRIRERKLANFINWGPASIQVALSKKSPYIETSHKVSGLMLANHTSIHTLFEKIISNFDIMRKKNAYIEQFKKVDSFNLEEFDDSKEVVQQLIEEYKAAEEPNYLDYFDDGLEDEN

What was measured:
[1] = target: Msh6^Tt-3HA (T. thermophila) (UniProt Q23K54); assay: affinity purification with mass spectrometry; 8 h of conjugation; cells lysed by sonication on ice in PBS; Msh6^Tt-3HA precipitated by its HA tag (Pierce HA-Tagged Magnetic IP/Co-IP kit), washes TBS and TBS-T; LC-MS/MS, MaxQuant iBAQ; WT lysate without HA tag as blank control; hits: iBAQ WT/iBAQ Msh6^Tt-3HA <= 0.1
[2] = target: Msh6^Tt-3HA (T. thermophila) (UniProt Q23K54); assay: affinity purification with mass spectrometry; 3 h of conjugation; cells lysed by sonication on ice in PBS; Msh6^Tt-3HA precipitated by its HA tag (Pierce HA-Tagged Magnetic IP/Co-IP kit), washes TBS and TBS-T; LC-MS/MS, MaxQuant iBAQ; WT lysate without HA tag as blank control; hits: iBAQ WT/iBAQ Msh6^Tt-3HA <= 0.05

| binding [1] | binding [2] | Molecule |
| --- | --- | --- |
| binds |  | TTHERM_01289180 (from UniProt Q22A23) |
|  | binds | TTHERM_00825210_RAB1C (protein, UniProt E1CAY3 1-210) MIKDYDHLFKLVIIGNSGVGKSSLLLRFSDDQFNESYLTTIGVDFRFRTLPIDQKQVKLQIWDTAGQERFRTITSAYYKGADGIVMVYDVTSENSFQDIDKFWISEVESYAEKNVELLLIGNKSDLEKQVSTQTAQEYAKSKNMEFFECSAKTSDSVQQAFLTLARKLMNKKEQLNKPKQYAPQGGSTQPRQNQSLSNRNNVQKQDKGCC |
| binds |  | TTHERM_00372688 (protein, UniProt A4VEL3 1-435) MHISKRDQSSFTNPEFFYLKGVFGKKFYFLSETVLYEYPSEVYFNAHQDQPSNIYNLIEYTFQPDQKGLSVQPKDPKKSVRGTLMETLEMQNAIDWMNCINHNVRRRDNYYIDIIRQNKKIIFNNYQNLEYNMENIMEQDLKTNQSANQTIQFDQKIKQFKKIDQAWMSKVVDKFIKGMESSNHFKKHSENIQLMKKLLQMQNKNYLVEKDQQLIKELDSIIDLFNIQMMDQFYKKEHIRSLIKSKTYYSNYTFMLYEFISQIQKLIIYEMENNNMKYTRDLLCSQEKLIRNSINDLESVVKTLLDEYNSSYSVALTEDIKHALIKVFKFFQNEIDCFLTYINYFIQEIFKSAYQLNQVNYLLQSLNYQQQIQYIGLGQITIEILELSKNQDKFESEEKSKSVLKKLCNNLLSYQLQIQEKLHNLISNIMPSILE |
|  | binds | TTHERM_00849320 (protein, UniProt Q23R52 1-192) MFIFDFFKNMLGYLGLYKKNGKILFLGLDNAGKTTLLRRLKDGRLVQHDPTLGSHTEELVLGNIRFKAFDLGGHEAVRKTWKNYFASIDGIVYLVDSSDRARFEESKIEFNKIIQTKELEKVPIVILGNKIDIQGAASEDELRINFGLANSSQIGIEKITEIDGRPIELFMCSVSKKIGYADGFQWLSKFLK |
|  | binds | TTHERM_00622710 (protein, UniProt Q241B3 1-631) MFARGITKATQLTLRNTKQFSTMAGFSGLKSYSQFFTKSNMNLKIGLLGLIGVGIAGYSTSQSYHSDEYYEKVIPANLQEGQKIDVQVGPKEEDSVLVAKVDGKYYCVSNKCPHFGFSLSKGVMFYDKVVCPLHNAAFSVKDGAAEGGPVVNGLENFEIVEKDGNLHIKVPKAKLNVPKPFDMVKRDPNDKRKFVIVGGGPAGISAAETLRQSGYTGQITILSKEKFIPYDRTILSKALFFADINKLQYRSKEFLESYGIEVVNEVEVTEIDTERHFVQTKNQDHIHFDKLLLATGGSPNRIPVEGVNSKNVFTLREFSDLESLKNNFQSSKKVVVIGASFIGLETAASVKDFLKDKVDITVVDQSKVPYQRVLGSEVGAAIKKLHADNGIKFNLGVGIKSIESQNGVAKRVVLSDGTSLEADMVLIGAGVSPNTRFVGEKLEKDNYGALKTDVFLQTSHPDVFAAGDIANYPYHYTGQRARFEHINSSIYQGSIAALNMVGQKTPCGEIPFFWTRFWNKSLHYTGYAPNYDEVHIQGSLDKLEFVAWYIKNDRVVAVSAMNKGPVAMVVNEAMKQNVMPSGTEIKNNIVKYEDIQKRIADRGRNCKCSRGANCCSARKLQQNQASQSAKI |
|  | binds | TTHERM_00530250 (protein, UniProt I7MGE1 1-505) MVPDNPAIIDPILNNLKKTFRTGKTRDLAFRKQQLRNLLTGIKEMEDEISEAVQKDLGYQDPKVAKFLNLLPTIGDIEYILNNFESWAQKRSVDVSLVVGPGSGYIIPEPYGVTLVIGAWNYPFNTTVAPAANAIAAGNCVALKPSEMSPHNSNVMKKLFDKYLDKDCYTVIEGQVEVAKAICYKPWDHIIFTGSPQKGKLVAQAASQNLIPCTLELGGKSPTIVDKTANLNVAVARIAQGKIGNSGQTCIAPDFAIVDQDIKDQFLSSLKEAMITQISNNPETSRDYNRMINEFHTKRMESMIKTHGGQIYYGGKVDVSKKFVEPTIIVNPKLDSECMQDEIFGPIFPVIFYKNFDEVINFINDRPKPLALYYFGENKTHKDRLLNETSSGHLSFNECVMHYINNTLPFGGVGNSGSGVIHGKLGFENCSHLKPVLDKSGTLGSLNSYPLNCRYPPYTESKLKTLNFLIKNLDVYPSEVLKSRKFLSVAVLATSALAYYFNPFK |

The next lines start with the molecule.

| Molecule | binding [1] | binding [2] |
| --- | --- | --- |
| NUP185 (from UniProt I7ME84) | binds |  |
| RRM53 (RNA recognition motif-containing protein 53) (from UniProt Q22BK8) | binds |  |
| TTHERM_00047280 (from UniProt Q23DG3) | binds |  |
| GTU1 (Gamma-TUbulin 1) (from UniProt Q23FR3) | binds |  |
| TTHERM_00016060 (protein, UniProt Q22RI1 1-260) MKLDNTIVALVTGGTSGLGEATVYALLEKGVRVFIADRNEEKGLQIQTKYGQDRCRFQKCDVSDEAQVKALVDACVATFGAIHILLNSAGVISAGLIVGGKNQDQTIKTEEMNRVLGVNVVGTFNVTKYVALQMVKQQPLNEFKERGVIVNVASVAGIEGQRGQTVYAASKGAIIGMTLPLARDLGKFGVRVCTIAPGIFQTPMGAGMSDKIIEALSKASALGRVGNPTEFADAILGLATNSFVTGSIFRLDGGIRLPHM |  | binds |
| TTHERM_00112690 (protein, UniProt Q22ZA2 1-801) MPENDIFPNGLVFEKMFHYIWTQSDMFEQKLNVNLPQTVIFKNSLPIFWYFTDKNGQIKKKKTEKHTPENIYEVFTKKIPKCGVVAQLLYPTTCENEFNPRTNINPKGQISGLHYIDSTTEAKIRYLTEEDLAKFLNGEMQISSGVLQQFIEPATLHNDSIQVVYTPRVVLMNKRVNTKNLYNQNVDIYERCCTFDGPDYFSQNLQMSGPISKEMTEQVDRIMGHLETISYGLFNILKIHLYFKIDANRKIWFLWAGGVSMHNISDKSNSQKPQQVISQPEIQIPDIHQSVSIKRKPIQLQKELFCLKCNKKGRSVDFFELKFSDLLNEYDNTETQKITAQNPYNQNKVFGKNQREDMLGQTLTNTFMEFKQMNQTGNYSSSKKNHEEQLKKQAEKHTVYKNKEIPSFFTLLFPKLDTENFSQISQTFYFKNQKIMVCRECYLEFSSLYQKQIETFKQQNSDYSSTATSFSDKRSTNRSNSYMKFQNIQSEQKKINQEFQKKLRSLSEDKLKSNEKIQKLFKLAKLGKAEDQIEQENKKSNLSLNENQKDKSDYCNLDTSNSGYNFDDKSHNTAQFFKNDEPSSTMKTIQKQNENTIQETLKLINEIYSNKNIMNTNQKLQNRPKPYQTYKYNQIDTAKLKQKIQSAISLKSDIFNKQKTTNLTEQTTNHTEPNLTNEELKTQKTDFSAITQKKEQIPQKDISKIIATNPYKFSYYEVLKKQELSPKNVQESKTDSEPLKPRIIVRSKRAHSQINFLPKDTPSKQPSNQSSQKRLLRTTSSSIQRFPVKMISERHSENSNI | binds |  |
| TTHERM_00151470 (protein, UniProt I7MGG8 1-405) MISRRLLHCFNRSSKLLNNKNQYRFESLNDTSNLTEDQVLVQQAALNFTKEHLLPFASEWDQKSQSPIEVYKEAGKLGFACIYSSPDHGGSGMDRVSASLVFEALATACVSTSSYLSILNMNHWIIDTYGNEKQKAEWLPQLSTVEKFSSYCLTEPGSGSDAANMKTFAKKDGGDYVINGSKCFISNAGFSDLYVVMCKTGENERSCILVPSDAKGLSFGKPEVKMGWHASPTASITFDNVRVPQSNLISTEGNGFKIAMTALDGGRVNIASTSLGSAAQCLAKTKEYVGQRKQFGKSIDSFQNTQFRIAEMATDLIASRLLVREAAKKIDLNHPNKTLYASMAKIQATEKCYNIVDQCLQLHGGYGYISEYNIERHLRDLRVNRILEGTNEIMRLIVSRQVIKQ |  | binds |
| RAB11B (RAB GTPase 11B) (protein, UniProt E1CAZ3 1-214) MASKNEDEYDFLFKIVLIGDSGVGKTNLLSRFTKNEFNMDSKPTIGVEFATKTVITENKYIKAQIWDTAGQEKYRAITNAYYRGAVGALTLYDITKQQTFDNVKKWLHELREYADANIICMLIGNKCDLQEMRQVKTEDAAKFAEENNLAFMETSAAQAINVDQAFQKLITEIYNNLKTRPNEEKKKAQPQQNGNNIIKDFKQPTQAEKEKKCC | binds |  |
| ABC transporter family proteins (TTHERM_00564120) (protein, UniProt I7LWG7 1-719) MQYLNQQGSIIKKVQLNRYLEKEYFKRNKKKRIKQSKIGQITRQQKMAAQSKIPSNDQLWADLMSQFVKFFFKNGQRTTITISAILALLGMLKLRKNQRSREVDSKVKQEKERKGKGDVDKVFFERIKTLLKIVIPSIKCTAIIDIVLLTVFLVFRTYLSIYLAGANGRIVKAIIKLDYQLFVKRIIQLCMIAIPASFVNSYLDFLNKRLAVFFRTQLTQHLCGLYLNGMIGYQLTSLDCRVANPDQRLTNDIEKWANSLSVIYSNFTKPVLDIILFSRKLAEQVGWRGPLMVVLWYFFSGLVIKYISPPFGKLTAIAQRNEGDYRHCHTDIVHHCEEIAFYRGNNWEKERVAESFNKLIRHQVNVMVKRMYMGTFDSMLVKYGAVMVGYAVLGLPVFGPGKEQYLAKIGKDSSTITRDYVRNSSLLINLAKAIGRLVVSYKEIQELAGYTTVVCEMRDVLLDLNKGQYKRKLVESAVEYGFQQTTAPQFVTIQTGNLHEVEDVIKFDKVPIVTPGGEKLVREISLEIKVGENVIVTGPNGCGKSSLFRILGGLWPIFTGSLSSPQLSELFYIPQKAYLPTGTLRDQIIYPDTRLQMLRKKKTDDDLIEYLKNVNLEYIVNREPKKFEAFEDWYDKLSGGEKQRIAMARMFYHHPKFAILDECTSAVSADVENSLYAYCRKNNITLFTISHRVNDLKQHHDYILRFDGEGDWKLEKINH |  | binds |
| TTHERM_000079948 (protein, UniProt W7XIA6 1-304) METALHLAKTRKKGKTNVRELGFIRVNTFVSNKSNQRVCKLNQQSLNQFYSGIIRIKEDNLKKSKVLIPNYFTQPSILCHLLLYNFKTRTVKSNQKYLKTWLISIIYISINIISLSELRVNNNLLRSNNQQQYVYGFVYYKNLIFKYTVFIANKNHKFQQKQFQLYQFTIILCLHLNNQFLCNQKSCTVKFRKDCRLFLIITFKICKDFLIDNQFCTEKQRLKIKVTKIYNQINYLSNCYQVVIQIGKINQIKNVFINKQINFKKQILQCILCFTKINKTRFIFNQKQQVQQFFNKCINEKIKY | binds |  |
| TTHERM_00355660 (protein, UniProt Q22Y05 1-318) MHAINYLTNLEKDINFNLLKFVLILKNYFYKMIARSFQRSLLYQLKQKPINSFASLGVFNKYKFSTSQQDGKKQELEEKSRYIMNELKDKDNQGTGSMRFSREKNFQSYVIYEHHMDQKEIRLKIRLRLLSSSIWFGAGVLVFHYVHPLAAFIPLIIMSRSIMSYKMGSNYTKKLINKVQLSEDKASVKLYALSGDIYECAIEEMDFQGINDLSDAKSNDQTLKEDQNSELSKLKQSSFLAMFDTTDKQGNYLKDLKILFNDQLVNMENAELLTKILRGDKDAVLSFQYVNEYDNSSDEISDEKLEEQLQEEIRKRKK | binds |  |

These are yes or no findings as the source states them, for the method shown. In cells and extracts the contact can be indirect. These calls come from enrichment with a bait or labelling near it, and not all partners need be listed.
